## Library screening results

The chains behind the UniProt entries cited, without tags or fusion partners.
UniProt E9BF75, entry or part of it: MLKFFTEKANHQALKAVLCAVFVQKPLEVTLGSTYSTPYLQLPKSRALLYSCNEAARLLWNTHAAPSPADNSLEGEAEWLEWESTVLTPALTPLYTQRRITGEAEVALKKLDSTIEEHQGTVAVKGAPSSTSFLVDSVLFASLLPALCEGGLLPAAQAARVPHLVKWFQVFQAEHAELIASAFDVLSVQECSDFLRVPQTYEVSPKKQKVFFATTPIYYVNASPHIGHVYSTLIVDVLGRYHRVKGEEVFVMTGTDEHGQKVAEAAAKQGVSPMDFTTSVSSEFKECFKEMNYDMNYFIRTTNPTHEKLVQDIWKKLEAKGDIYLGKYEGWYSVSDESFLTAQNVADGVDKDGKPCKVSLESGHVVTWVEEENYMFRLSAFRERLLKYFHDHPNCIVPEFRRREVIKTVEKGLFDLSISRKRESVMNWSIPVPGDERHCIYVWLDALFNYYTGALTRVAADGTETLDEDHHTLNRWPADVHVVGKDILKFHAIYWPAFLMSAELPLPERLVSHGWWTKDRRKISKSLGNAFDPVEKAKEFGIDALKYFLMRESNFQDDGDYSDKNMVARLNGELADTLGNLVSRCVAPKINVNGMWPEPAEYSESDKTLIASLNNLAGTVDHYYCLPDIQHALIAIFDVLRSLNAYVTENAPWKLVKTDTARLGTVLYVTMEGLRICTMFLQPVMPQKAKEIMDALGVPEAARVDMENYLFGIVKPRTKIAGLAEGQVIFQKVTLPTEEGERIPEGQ

Source: ChEMBL document CHEMBL3988442, “University of Dundee, Small-Polar-MMV Screening Library” (2021).

All values are in %. How 0% and 100% were set is not recorded. Most values in the screen are low, and negative values occur. Compounds were drawn at random from those tested, without regard to their results. A dash means the value is not listed here; it may have been measured.

LdMetRS: 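Primary screen of methionyl-tRNA synthetase; the read-out is not stated. Target: Methionyl-tRNA synthetase (putative), Leishmania donovani (UniProt E9BF75). The test concentration is not given. Values are per cent inhibition. About 68,000 compounds were tested under these conditions; 0.035% (about 24) showed 50% or more at least once.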
Mtb heat-shock: 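Assay on Mycobacterium tuberculosis, filed only as a heat shock assay from Cornell; the read-out is not stated. The concentration is filed as 10 mM, unlikely as a test dose, so the dose is not known. Direction is inferred from retests: higher values go with stronger inhibition. Of about 69,000 compounds tested this way, about 930 (1.4%) reached 50% or more in at least one test.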

Compound	LdMetRS	Mtb heat-shock
Fc1cccc(-c2nccnc2C2CCCNC2)c1 (centres unmarked)	13.55	-12.69
Cc1nn(C)c(C)c1CCC(=O)NCc1csc(N2CCCC2)n1	25.64	-5.205
O=C(O)C(F)(F)F.O=C(O)C(F)(F)F.O=C(c1cscn1)N1CCC2(CN(Cc3ccncc3)C2)C1	-	-52.86
O=C(c1cnc2ccc(F)cc2c1NCc1ccco1)N1CCCCC1	5.362	-14.11
O=C1CC[C@H]2CN(Cc3ccc(Cl)s3)CC[C@H]2N1CCc1c[nH]cn1	18.5	-
N#Cc1cc(NS(=O)(=O)CC2CCCCO2)ccc1F (centres unmarked)	6.832	8.805
NC(=O)c1cccc(CNC/C=C/c2ccccc2)c1	15.57	6.671
CCCn1cc(-c2cc(-c3c[nH]cn3)c(C#N)c(N)n2)c(C)n1	2.046	15.71
O=C(c1ccc[nH]1)N1CCn2cc(CN3CCCC3)nc2C1	5.923	-
CS(=O)(=O)NCC1CCCCN1C(=O)c1ccc(Br)s1 (centres unmarked)	9.023	-34.39
CCOc1nnc(CN(Cc2ccccc2)CC(O)c2ccco2)s1 (centres unmarked)	15.19	23
Cc1cnn(CCC(=O)N2CCCN(c3ncccc3C#N)CC2)c1	21.53	-11.4
Cc1ccc([C@]2(O)CC[C@H]3CN(Cc4cccc(F)c4F)C[C@H]32)nc1	5.085	-
COc1cc(F)ccc1N(C)Cc1cccnc1	1.882	-11.94
O=C(NCCN1CCOCC1)c1cc(COc2ccccc2F)[nH]n1	6.443	-19.78
O=C(O)C(F)(F)F.O=C(O)C(F)(F)F.[H][C@]12CCN(c3ncc(F)cn3)[C@@]1([H])C[C@@H](C(=O)NCc1cccnc1)O2	-	3.372
Cc1cc(CN2CCN(C(=O)NC(C)c3ccc(C)o3)CC2)on1 (centres unmarked)	18.58	0.3145
Cc1cccc(C(C(=O)NCCCc2ccncc2)N(C)C)c1 (centres unmarked)	13.23	16.14
[H][C@@]12CCC(=O)N(CCNC)[C@]1([H])CCN(c1cnc3ccccc3n1)C2	-	-9.467
Cc1nnsc1CN1CC[C@@](O)(C2CCC2)[C@H](C)C1	12.99	-173.2
COc1ccc(S(=O)(=O)NCCC(O)c2cc(C)oc2C)c(C)c1 (centres unmarked)	9.353	-6.038
Cc1ccc(F)c(N2CCCC(Nc3nccn4cnnc34)C2=O)c1 (centres unmarked)	12.68	16.83
Cc1c2ncn(CC(=O)c3ccccc3)c(=O)c2nn1C	10.53	-6.492
O=C([C@@H]1CC[C@@H]2[C@@H](CCN2c2ncccn2)O1)N1CCCO1	4.762	-
Cc1ncncc1-c1ccnc(NC(C)C)n1	11.89	-1.587
CN1CC2(CCN(C(=O)Cc3ccccn3)CC2)OCC1=O.O=C(O)C(F)(F)F	-	-22.03
CC1(C)CN=C(N2CCN(CC3CCCCO3)CC2)S1 (centres unmarked)	7.788	-11.05
O=C(O)C(F)(F)F.[H][C@@]12COC[C@@H](C(=O)N3CCCCO3)[C@]1([H])CN(Cc1cc(C)on1)C2	-	-12.07
Cc1ccc(C(CNCc2cccc3c2OCO3)N2CCOCC2)o1 (centres unmarked)	12.42	-5.082
Cc1ccc(C(F)(F)F)cc1NCC(=O)Nc1c(C)nn(C)c1C	11	-14.96
COCc1nc(NCC2CCS(=O)(=O)C2)c2cnn(C)c2n1 (centres unmarked)	2.41	17.68
NC(=O)C1CCN(C(=O)Cn2ccc3cc(Br)ccc32)CC1	9.394	-9.424
Cc1cccc(CN2Cc3ccnn3CC(COCC3CC3)C2)n1.O=C(O)C(F)(F)F (centres unmarked)	-	-3.31
O=C(O)C(F)(F)F.[H][C@]12CCN(c3cncnc3)C(=O)[C@]1([H])CN(Cc1ccccn1)C2	-	10.61
O=C(C(CNCc1ccncc1)c1ccccc1)N1CCOCC1 (centres unmarked)	3.937	-8.754
O=C(c1cnc2ccccc2c1)N1CCC2(CCN2c2ncccn2)C1 (centres unmarked)	9.202	-
O=C(NCC(F)(F)F)c1ccncc1	8.924	-8.873
COCCN1C[C@H]2CC[C@@]3(N=C(C)N(CC4CC4)C3=O)[C@H]2C1	22.86	-
CCS(=O)(=O)c1ccc(N2CCC(NC(C)=O)CC2)cc1	11.71	15.65
Cc1cccc(CN2C(=O)C[C@H]3[C@@H]2CCN3Cc2ccccn2)n1	9.091	-
O=C(NCc1cnc2n1CCN(Cc1ccoc1)C2)c1ccno1	9.524	-
CCOC[C@]12COC[C@H]1CN(Cc1ccc(F)c(F)c1)C2	11.14	-
O=S(=O)(NCc1ccccc1)Nc1ccc(-n2ccnc2)cc1	0	25.96
Cc1nn(CC(=O)O)c2nccc(-c3ccc(F)cc3)c12	15.05	7.159
NC(=O)C1CCN(C(=O)c2ccccc2OCc2ccncc2)CC1	18.51	9.425
CCCNC(=O)CSc1nnc2[nH]c(=O)cc(CC)n12	8.374	-16.72
Cc1cccc2c1OCCC2NCc1c(C)nn(C)c1N(C)C (centres unmarked)	8.163	-4.09
CCCc1nc(C)cc(NCCc2nnc(N)s2)n1	18.54	-5.545
CN(C)C(=O)[C@H]1CO[C@H]2CCN(c3ncc(F)cn3)C[C@H]2C1	10.68	-
CC(C)OCCC(=O)N1CCN(CC(O)c2ccccc2)CC1 (centres unmarked)	2.419	-15.92
COc1c(NS(=O)(=O)c2ccc(C)c(C)c2)c(C)nn1C	-	-11.35
O=C(Nc1nncs1)NC1CCc2ccccc21 (centres unmarked)	15.5	-20.66
O=C(NC1CC1)c1cc(C2CC2)nc2onc(C3CCNCC3)c12	8	-12.35
CS(=O)(=O)Nc1cccc(C(=O)Nc2ccc3c(c2)C(=O)NC3)c1	17.01	2.764
CN(C)S(=O)(=O)N1C[C@@H]2CC[C@H](C1)N(C/C=C/c1ccc(F)cc1)C2	10.53	-
O=C1N(CCCc2ccccc2)CCCC1(O)CNCC1CCCCC1 (centres unmarked)	4.27	8.27
CCn1cc(NC(=O)C2CCN(Cc3noc(C4CC4)n3)CC2)cn1	19.37	-5.319
Cc1nn(C)c(C)c1C1CCCN1C(=O)c1cc(C(N)=O)cs1 (centres unmarked)	6.425	2.69
O=C(c1ccc[nH]1)N1CCCC(c2cc(C(F)(F)F)[nH]n2)C1 (centres unmarked)	18.11	4.345
CCn1c(C)cc(C(=O)NCc2ccc(CS(C)(=O)=O)cc2)c1C	8.014	-4.848
COCCN1CCCc2sc(C(=O)NCC3CCCO3)nc21 (centres unmarked)	0.8219	-24.39
CC(Cc1ccco1)NC(=O)Nc1ccc(N2CCCC2)nc1 (centres unmarked)	20.53	8.318
COC(=O)Cn1c(=O)nc2n1C(=O)N(c1cccc(C)c1)C2	11.31	9.932
Cc1cc(C)n(-c2ccc(CNCc3ccc(F)cc3F)cn2)n1	15.85	-15.2
CCOC(=O)c1coc(N2CCN(Cc3cccc(OC)c3)C(=O)C2)n1	13.77	-21.91
c1ccc(CN2CCn3c(Cn4cncn4)cnc3C2)nc1	13.93	-
CC(Nc1cnn(C)c(=O)c1Cl)c1ccc(F)c(F)c1 (centres unmarked)	3.966	-5.151
COCC1CC2(CCNCC2)CN1Cc1csc(C)n1 (centres unmarked)	10.8	-
Cc1cnc(CN2CCCC(c3cc(C(F)(F)F)[nH]n3)C2)cn1 (centres unmarked)	13.99	44.82
Cc1ncc(C(=O)NCCNc2ncccn2)s1	14.64	-17.26
Cc1ccc(F)c(-n2nnc(C(=O)O)c2-c2ccncc2)c1	8.451	-3.946
O=S(=O)(CCNCc1cc(O)c2cc(F)ccc2n1)N1CCCC1	12.59	-18.64
Cn1ccc2c(-c3ccc(NC4CC4)nn3)ccnc21	6.634	7.512
Cn1cccc1C(O)CNC(=O)c1ccc(F)c(F)c1 (centres unmarked)	13.24	16.25
CCc1ccc(NC(=O)c2n[nH]c(-n3cnnc3)n2)cc1	23.87	16.05
COCCN(CC(F)F)c1cc(C(F)(F)F)nc2ncnn12	20.91	-25.38
O=C(O)C1CN(c2cncc(Cc3ccccc3)n2)C1	7.764	6.571
CS(=O)(=O)NCCN(CCCO)C1CCc2ccccc21 (centres unmarked)	13.77	-25.48
Cc1cc(=O)c(C(=O)Nc2cccc(CCN3CCCC3)c2)c[nH]1	17.8	-5.627
[H][C@@]12CN(C(C)=O)CCO[C@]1([H])CN(S(=O)(=O)c1ccccc1F)C2	-	16.54
CC(C)(C)c1ncc2c(n1)CN(C(=O)c1ccc(-c3nc[nH]n3)cc1)C2	14.5	13.78
[H][C@]12CC[C@]([H])(CN(C(=O)C3CCC3)C1)N(S(=O)(=O)c1ccccc1)C2	-	-12.74
CC(=O)N(Cc1noc(C)n1)C1CCN(Cc2ccncc2Cl)C1 (centres unmarked)	10.42	16.5
CS(=O)(=O)N[C@H]1COC[C@@H]2CN(Cc3ccco3)C[C@@H]21	-0.274	-

The last 9 entries again:

For COCCN(CC(F)F)c1cc(C(F)(F)F)nc2ncnn12 the result was LdMetRS: 20.91%; Mtb heat-shock: -25.38%.
For O=C(O)C1CN(c2cncc(Cc3ccccc3)n2)C1 the result was LdMetRS: 7.764%; Mtb heat-shock: 6.571%.
For CS(=O)(=O)NCCN(CCCO)C1CCc2ccccc21 (centres unmarked) the result was LdMetRS: 13.77%; Mtb heat-shock: -25.48%.
For Cc1cc(=O)c(C(=O)Nc2cccc(CCN3CCCC3)c2)c[nH]1 the result was LdMetRS: 17.8%; Mtb heat-shock: -5.627%.
For [H][C@@]12CN(C(C)=O)CCO[C@]1([H])CN(S(=O)(=O)c1ccccc1F)C2 the result was Mtb heat-shock: 16.54%.
For CC(C)(C)c1ncc2c(n1)CN(C(=O)c1ccc(-c3nc[nH]n3)cc1)C2 the result was LdMetRS: 14.5%; Mtb heat-shock: 13.78%.
For [H][C@]12CC[C@]([H])(CN(C(=O)C3CCC3)C1)N(S(=O)(=O)c1ccccc1)C2 the result was Mtb heat-shock: -12.74%.
For CC(=O)N(Cc1noc(C)n1)C1CCN(Cc2ccncc2Cl)C1 (centres unmarked) the result was LdMetRS: 10.42%; Mtb heat-shock: 16.5%.
For CS(=O)(=O)N[C@H]1COC[C@@H]2CN(Cc3ccco3)C[C@@H]21 the result was LdMetRS: -0.274%.